Measurements from PubChem BioAssay AID493014 (National Center for Advancing Translational Sciences (NCATS), 2011).
In all, about 340,000 compounds went through this assay and about 170 (0.05%) were called active. The inconclusive results got no clear call from the source; some entries with a clear call stand among them for comparison. The call rests on the fitted dose curve; in most records, active means well fitted inhibition curve with a large enough effect in the signal ratio, with a control signal flat (not every such curve was filed as active); inconclusive means small, poorly fitted or top-dose-only effect, or effect the other way, or a change in a side signal; inactive means flat fitted curve, though single readings scatter; the % refers to the signal ratio. Where the call is inconclusive, the potency comes from a doubtful curve fit.

Assay: qHTS Assay to Find Inhibitors of Chronic Active B-Cell Receptor Signaling;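 on activity change, negative = inhibition: plate controls were basal doxycycline-induced cells for no effect and cells given 10 µM MG132 for full effect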
Conditions: ABC-DLBCL IkBa-CBG/CBR reporter, luminescence ratio (green luciferase fused to IkBa over red control in TMD8 lymphoma cells), 4 h; activity change, negative = inhibition: at 46.1 µM (top of the series) unless noted
How it was run: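 TMD8 human ABC-DLBCL cells with doxycycline-inducible IκBα–green luciferase fusion and unfused red luciferase, in 0.5% FBS medium; compounds up to 46 uM, 4 h at 37C. Green/red luminescence ratio, filter-overlap corrected, fitted to concentration-response curves.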
Potency means the concentration at half of the fitted maximal effect.

Q: For `COC(=O)c1ccc(NC(=O)COC(=O)c2nc3nccc(C)n3n2)cc1`, which activity change, negative = inhibition is on record?
A: inactive

Q: For `COCCn1c(SCC(=O)N2CCCc3ccccc32)nc2ccccc2c1=O`, which activity change, negative = inhibition is on record?
A: inconclusive: 3.07%

Q: For `O=C(CC1CCCCC1)NCc1ccc(Cl)cc1`, which activity change, negative = inhibition is on record?
A: inconclusive: 6.52%

Q: Which activity change, negative = inhibition does the source give for `CN1CCc2nc(NC(=O)COc3ccc(C#N)cc3)sc2C1` here?
A: inactive

Q: With `COc1ccc(COC(=O)C2=C(C)NC(=O)NC2c2cc(Br)c(O)c(OC)c2)cc1` (stereo unspecified) as the compound, how does the Potency read?
A: inconclusive: 15.8 µM [falling, partial curve, poor fit]

Q: Which activity change, negative = inhibition does the source give for `COc1ccc(C(=S)N2CCN(S(=O)(=O)c3ccccc3)CC2)cc1` here?
A: inconclusive: 9.61%

Q: With `COc1ccccc1/C=N/n1c(N)c(C(=O)NC2CCCCC2)c2nc3ccccc3nc21` as the compound, how does the activity change, negative = inhibition read?
A: inactive

Q: For `NC(=O)c1nsc(C(=O)N(c2cccc(F)c2)C(C(=O)NCC2CCCO2)c2ccc3ncccc3c2)c1N` (stereo unspecified), which activity change, negative = inhibition is on record?
A: inconclusive: 2.67%

Q: For `CCOC(=O)Nc1nc(C)c(C(=O)c2ccc(Cl)cc2)s1`, which activity change, negative = inhibition is on record?
A: inconclusive: 13.6%

Q: Which activity change, negative = inhibition does the source give for `Cc1ccc(C(=O)Nc2sc3c(c2C(=O)O)CCCCC3)o1` here?
A: inconclusive: 161%

Q: Which activity change, negative = inhibition does the source give for `COc1ccc(N2CCN(C(=O)CSc3nnc(-c4cccnc4)n3-c3ccc(F)cc3)CC2)cc1` here?
A: inconclusive: -2.78%

Q: For `CC(=O)N1CCC2(CC1)CC(=O)c1cc(OCC(=O)N3CCOCC3)ccc1O2`, which Potency is on record?
A: inconclusive: 22.4 µM [falling, partial curve]

Q: Which activity change, negative = inhibition does the source give for `Cc1nc2c(-c3ccc(Cl)cc3)cnn2c2c1CCC2` here?
A: inactive

Q: For `COc1ccc2c(c1OC)c(=O)n1c3ccc(OC(C)C(=O)NCCCN4CCOCC4)cc3c3ccnc2c31` (stereo unspecified), which Potency is on record?
A: inconclusive: 0.891 µM [rising, full curve]

Q: For `O=C(CCC1COc2ccccc2O1)NCc1ccco1` (stereo unspecified), which activity change, negative = inhibition is on record?
A: inconclusive: 28.7%

Q: Which activity change, negative = inhibition does the source give for `CCCOc1ccccc1C1C(C(=O)OC)=CN(C(C)C)C=C1C(=O)OC` here?
A: inactive

Q: For `CCc1nnc(NC(=O)CCC(=O)N2CCN(c3ccccn3)CC2)s1`, which activity change, negative = inhibition is on record?
A: inactive

Q: For `COc1ccccc1C(=O)Nc1nc2cc3c(cc2s1)OCO3`, which activity change, negative = inhibition is on record?
A: inconclusive: 1.22%

Q: For `Cc1ccsc1C(=O)N(C)C1CCS(=O)(=O)C1` (stereo unspecified), which activity change, negative = inhibition is on record?
A: inactive

Q: For `Cc1ccc(NC(CC(=O)c2ccccc2)C(=O)O)cc1Cl` (stereo unspecified), which Potency is on record?
A: inconclusive: 31.6 µM [rising, single point]

Q: Which activity change, negative = inhibition does the source give for `COc1cc(/C=N/n2c(-c3ccccc3)n[nH]c2=S)cc(OC)c1O` here?
A: inactive

Q: Which activity change, negative = inhibition does the source give for `O=C(/C=C/c1c(Cl)cccc1Cl)NCCc1ccccc1` here?
A: inconclusive: 0.324%

Q: Which activity change, negative = inhibition does the source give for `CC1=C(C(=O)OC(C)C)C(c2cccc(F)c2)N2C(=O)C(C)SC2=N1` (stereo unspecified) here?
A: inconclusive: -4.87%

Q: For `CS(=O)(=O)c1ccc2nnn(OCC(=O)Nc3ccc(Br)cc3Br)c2c1`, which Potency is on record?
A: inconclusive: 20 µM [falling, partial curve, poor fit]

Q: Which activity change, negative = inhibition does the source give for `CCCCn1c(=O)c(F)cn(Cc2ccc(OC)c([N+](=O)[O-])c2)c1=O` here?
A: inconclusive: -5.95%

Q: For `C=CCNS(=O)(=O)c1ccc2c(c1)n(C)c(=O)n2C`, which Potency is on record?
A: inconclusive: 12.6 µM [falling, single point]

Q: For `COC(=O)c1ccc2nc(NC(=O)C(C)C)sc2c1`, which activity change, negative = inhibition is on record?
A: inconclusive: -15.2%

Q: With `N#CC1(NC(=O)COC(=O)c2ccc(-c3ccc(O)cc3)cc2)CCCCC1` as the compound, how does the Potency read?
A: inconclusive: 0.146 µM [rising, full curve]

Q: Which activity change, negative = inhibition does the source give for `CC(=O)c1ccc2c(c1)N(C)c1ccccc1S2` here?
A: inconclusive: 17.2%

Q: With `OC1(c2ccc(OC(F)F)cc2)CSC(=Nc2cccnc2)N1Cc1ccco1` (stereo unspecified) as the compound, how does the activity change, negative = inhibition read?
A: inactive

Q: Which activity change, negative = inhibition does the source give for `CCSc1nc2ccccc2c(=O)n1CCc1ccc(OC)c(OC)c1` here?
A: inconclusive: -1.44%

Q: With `CSCCC(NC(N)=O)C(=O)Nc1cccc(S(=O)(=O)N2CCOCC2)c1` (stereo unspecified) as the compound, how does the activity change, negative = inhibition read?
A: inconclusive: 2.03%

Q: Which Potency does the source give for `CCOC(=O)C1CCCN(C2=NC(=O)/C(=C/c3ccc(O)c(OC)c3)S2)C1` (stereo unspecified) here?
A: inconclusive: 20 µM [falling, single point]

Q: Which Potency does the source give for `O=C(N/N=C/c1ccc2c(c1)OCO2)c1ccc(Cn2cc([N+](=O)[O-])cn2)o1` here?
A: inconclusive: 18.4 µM [falling, partial curve]

Q: With `CC(Nc1n[nH]c(=O)[nH]c1=O)C(=O)N/N=C/c1ccccc1` (stereo unspecified) as the compound, how does the activity change, negative = inhibition read?
A: inconclusive: -18.8%

Q: For `Cc1cccc2nc(CSc3nc4ccccc4[nH]3)cn12`, which activity change, negative = inhibition is on record?
A: inactive

Q: With `COc1ccc(C(C(=O)NC(C)(C)C)N(C(=O)CCC(=O)Nc2cc(C)on2)c2c(C)cccc2C)cc1` (stereo unspecified) as the compound, how does the activity change, negative = inhibition read?
A: inactive

Q: For `O=C(COC(=O)c1ccc(Cl)cc1[N+](=O)[O-])NC(=O)c1ccccc1`, which activity change, negative = inhibition is on record?
A: inconclusive: 0.984%

Q: For `O=C(NNC1CC(=O)N(c2ccc3c(c2)OCCO3)C1=O)c1ccccc1` (stereo unspecified), which activity change, negative = inhibition is on record?
A: inconclusive: -19.5%

Q: With `N#Cc1cc2c(N)c(C(=O)Nc3ccccc3)sc2nc1N` as the compound, how does the Potency read?
A: inconclusive: 16.4 µM [falling, partial curve]

Q: With `CCCC(C)C(=O)Nc1ccc(Cl)cc1Cl` (stereo unspecified) as the compound, how does the Potency read?
A: inconclusive: 23.1 µM [rising, partial curve, poor fit]

Q: For `CCN1C(C(=O)Nc2cc(C)on2)=C(O)c2ccccc2S1(=O)=O`, which activity change, negative = inhibition is on record?
A: inconclusive: 2.44%

Q: With `Fc1ccc(-n2nnc(-c3cnc4ccccc4c3)n2)cc1` as the compound, how does the Potency read?
A: inconclusive: 10 µM [falling, partial curve]

Q: Which activity change, negative = inhibition does the source give for `Cc1ccccc1CC(=O)NC1CCN(Cc2ccccc2)CC1` here?
A: inconclusive: 0.529%

Q: Which activity change, negative = inhibition does the source give for `COc1ccc(C)cc1NC(=O)CCN1CCN(c2ccccc2F)CC1` here?
A: inactive

Q: With `O=C(c1cc(-c2ccc(Cl)c(Cl)c2)on1)N1CCOCC1` as the compound, how does the activity change, negative = inhibition read?
A: inconclusive: 3.2%

Q: With `CN(Cc1ccco1)S(=O)(=O)c1cc(F)ccc1CN1C(=O)c2cccnc2C1=O` as the compound, how does the activity change, negative = inhibition read?
A: inconclusive: -1.39%

Q: With `CCCCCCN(C(=O)CCCCCN1C(=O)NC(c2ccc(-c3ccccc3)cc2)C(C(=O)OCc2ccccc2)=C1C)C(C(=O)NCCCC)c1ccc(OCC(=O)OC)c(C(=O)OC)c1` (stereo unspecified) as the compound, how does the activity change, negative = inhibition read?
A: inconclusive: -11.3%

Q: With `Cc1ccc(CNC(=O)C(=O)NCC(c2ccco2)S(=O)(=O)c2ccc(C)cc2)cc1` (stereo unspecified) as the compound, how does the activity change, negative = inhibition read?
A: inconclusive: 6.94%

Q: For `COC(=O)c1ccc(C(=O)OC)c(NC(=O)CCc2ccc(C)o2)c1`, which activity change, negative = inhibition is on record?
A: inconclusive: 14.2%

Q: For `Cn1ncc2c(Nc3ccc(Cl)c(Cl)c3)ncnc21`, which activity change, negative = inhibition is on record?
A: inconclusive: -4.61%
